Measurements reported in PubChem BioAssay AID743454 (Peter MacCallum Cancer Centre, 2014)
Shown is a random part of about 18,000 deposited reagents. 450 of all reagents (2.5%) were called active. 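Single biological run; no consistent viability z cut-off exists, so the class columns, not z-scores, define the calls.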

Test: 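Genes whose loss kills vorinostat-resistant colon cancer cells under vorinostat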 (primary screen)
Cells: human HCT116-VR colon cancer cells, selected for vorinostat resistance
Knock-down reagent: siRNA pool against human genes, 40 nM siRNA pool
Time to read-out: vorinostat for 24 h, read-out about 72 h after transfection
Conditions: vorinostat at 2.5 µM final
Read-out: 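Two measures, CellTiter-Fluor viability and luminescent caspase 3/7 activity, each as fold change against same-plate mock wells, mean of duplicates, then screen-wide robust z-score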
Direction: viability robust z-score: higher = more viable cells than screen typical; caspase robust z-score: higher = more caspase 3/7 activity than screen typical
Call rule: 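a knock-down is a hit when classed RV1 or RV2 for lowered viability, or CA1 or CA2 for caspase activation; those lethal without drug were dropped; hits were retested singly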

Gene | viability hit class | caspase hit class | viability robust z-score | caspase robust z-score | Call
CENPH | no change | no change | -0.52 | -0.01 | inactive
RPL26L1 | no change | no change | 0.41 | -0.2 | inactive
RASSF3 | no change | no change | 0.3 | 1 | inactive
ERI3 | no change | no change | 0.99 | -0.29 | inactive
CENPM | no change | no change | -0.37 | 0.28 | inactive
ZNF19 | no change | no change | -0.58 | 1.96 | inactive
MASP1 | no change | no change | 0.42 | -0.29 | inactive
NGB | no change | no change | 1.23 | -0.15 | inactive
TNIP1 | no change | no change | 0.82 | -0.7 | inactive
ARHGAP30 | no change | no change | 0.46 | -0.74 | inactive
TOMM40L | no change | no change | -0.51 | -0.79 | inactive
PRIMPOL | no change | no change | 0.99 | -0.13 | inactive
CCNC | no change | no change | 0.64 | -0.22 | inactive
SDHD | no change | no change | -1.89 | 2.5 | inactive
ZNF415 | no change | no change | -0.42 | 1.19 | inactive
GPR18 | no change | no change | -0.88 | -0.95 | inactive
HRH4 | no change | no change | -0.73 | -0.58 | inactive
HELB | no change | no change | 0.25 | -0.86 | inactive
TPSD1 | no change | no change | 1.09 | -0.56 | inactive
MYDGF | no change | no change | -0.16 | 3.09 | inactive
EDAR | no change | no change | 0.36 | -0.99 | inactive
PCOLCE2 | no change | CA2 (caspase activation) | -1.05 | 7.21 | active
GET3 | no change | no change | 0.18 | -0.72 | inactive

A stretch of the results above:
Gene | viability hit class | caspase hit class | viability robust z-score | caspase robust z-score | Call
ARHGAP30 | no change | no change | 0.46 | -0.74 | inactive
TOMM40L | no change | no change | -0.51 | -0.79 | inactive
PRIMPOL | no change | no change | 0.99 | -0.13 | inactive
CCNC | no change | no change | 0.64 | -0.22 | inactive
